The results in this text go back to article PMC5708649, “A novel Porphyromonas gingivalis enzyme: An atypical dipeptidyl peptidase III with an ARM repeat domain” (PLoS ONE, 2017).

The chains behind the UniProt entries cited, without tags or fusion partners.
UniProt Q7MX92: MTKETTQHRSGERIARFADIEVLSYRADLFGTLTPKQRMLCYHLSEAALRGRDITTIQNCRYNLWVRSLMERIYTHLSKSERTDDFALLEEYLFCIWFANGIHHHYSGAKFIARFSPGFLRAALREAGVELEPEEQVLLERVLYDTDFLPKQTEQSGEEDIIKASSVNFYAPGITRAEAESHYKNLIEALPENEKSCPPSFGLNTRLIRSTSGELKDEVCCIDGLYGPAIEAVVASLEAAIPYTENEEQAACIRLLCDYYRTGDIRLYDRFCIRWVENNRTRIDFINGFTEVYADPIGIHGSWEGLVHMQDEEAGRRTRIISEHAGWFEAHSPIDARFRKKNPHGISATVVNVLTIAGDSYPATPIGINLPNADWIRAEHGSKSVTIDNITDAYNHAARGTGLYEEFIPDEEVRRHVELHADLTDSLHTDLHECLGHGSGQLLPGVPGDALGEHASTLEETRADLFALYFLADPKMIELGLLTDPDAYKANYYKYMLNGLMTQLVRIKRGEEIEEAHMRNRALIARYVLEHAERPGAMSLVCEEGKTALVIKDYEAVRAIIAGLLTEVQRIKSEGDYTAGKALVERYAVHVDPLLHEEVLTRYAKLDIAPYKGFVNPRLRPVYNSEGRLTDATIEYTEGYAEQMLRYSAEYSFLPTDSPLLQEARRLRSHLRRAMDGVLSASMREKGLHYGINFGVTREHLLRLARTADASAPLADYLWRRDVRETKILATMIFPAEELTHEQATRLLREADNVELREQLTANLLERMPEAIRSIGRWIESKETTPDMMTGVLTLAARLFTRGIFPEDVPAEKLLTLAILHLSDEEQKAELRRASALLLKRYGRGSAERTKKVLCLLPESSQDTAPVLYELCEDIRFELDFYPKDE

Results are given in words; binding and its absence hold for the method and conditions named.

For the experiment, the target named is full-length PgDPP III (Porphyromonas gingivalis W83) (UniProt Q7MX92). Put plainly: SAXS; full-length PgDPP III at 8.8, 4.43 and 1.02 mg/mL in 50 mM Tris-HCl pH 8.0, 100 mM NaCl; molecular weight from I(0) against BSA; both purified.

“full-length PgDPP III (from UniProt Q7MX92 1-886) (enzyme)”: the binding entry was “no binding (tested: 8.8, 4.43, and 1.02 mg/mL)”.
